The target of the experiment is 2HA-PC1-CTT (human polycystin-1 C-terminal tail, aa 4104-4303, N-terminal 2XHA tag) (human) (UniProt P98161). As to the kind of experiment: co-IP; total kidney lysates of N-Pkd1-KO + CTT, J-Pkd1-KO + CTT and N-Pkd1-KO mice, anti-HA magnetic beads overnight at 4 °C in Tris lysis buffer (50 mM Tris pH 7.4, 100 mM NaCl, 0.5% NP-40, 0.5% Triton X100, 2 mM EDTA), blotted for NNT.

Protein sequences, listed by entry. Tags and fused reporters are not part of them. Residues count along the entry.
UniProt P98161, residues 4104-4303: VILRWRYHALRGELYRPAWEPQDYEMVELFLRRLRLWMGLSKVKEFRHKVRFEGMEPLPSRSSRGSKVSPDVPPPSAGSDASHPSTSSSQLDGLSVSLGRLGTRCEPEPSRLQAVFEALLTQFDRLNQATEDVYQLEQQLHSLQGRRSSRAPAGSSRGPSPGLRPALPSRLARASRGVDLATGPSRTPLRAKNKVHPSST

These are yes or no findings as the source states them, for the method shown. Binding seen in cells or lysates may run through a third protein. Some binding calls cover weakened binding; strength is not graded here.

B1: Nicotinamide Nucleotide Transhydrogenase (NNT) (enzyme, UniProt Q61941 44-1086)
chain: CKSPVKPGIPYKQLTVGVPKEIFQNEKRVALSPAGVQALVKQGFNVVVESGAGEASKFPDDLYRAAGAQIQGMKEVLASDLVVKVRAPMVNPTLGAHEADFLKPSGTLISFIYPAQNPDLLNKLSERKTTVLAMDQVPRVTIAQGYDALSSMANISGYKAVVLAANHFGRFFTGQITAAGKVPPAKILIVGGGVAGLASAGAAKSMGAVVRGFDTRAAALEQFKSLGAEPLEVDLKESGEGQGGYAKEMSKEFIEAEMKLFAQQCKEVDILISTALIPGKKAPVLFSKEMIESMKEGSVVVDLAAEAGGNFETTKPGELYVHKGITHIGYTDLPSRMATQASTLYSNNITKLLKAISPDKDNFHFEVKDDFDFGTMSHVIRGTVVMKDGKVIFPAPTPKNIPEEAPVKPKTVAELEAEKAGTVSMYTKTLTTASVYSAGLTGMLGLGIVAPNVAFSQMVTTFGLAGIIGYHTVWGVTPALHSPLMSVTNAISGLTAVGGLALMGGHFYPSTTSQSLAALATFISSVNIAGGFLVTQRMLDMFKRPTDPPEYNYLYLLPGGTFVGGYLAALYGGYNIEEIMYLGSGLCCVGALGGLSTQGTARLGNALGMIGVAGGLAATLGGLKPDPQLLAQMSGAMAMGGTIGLTIAKRIQISDLPQLVAAFHSLVGLAAVLTCMAEYIVEYPHFAMDATSNFTKIVAYLGTYIGGVTFSGSLVAYGKLQGILKSAPLLLPGRHALNAGLLAASVGGIIPFMADPSFTTGITCLGSVSGLSTLMGVTLTAAIGGADMPVVITVLNSYSGWALCAEGFLLNNNLLTIVGALIGSSGAILSYIMCVAMNRSLANVILGGYGTTSTAGGKPMEISGTHTEINLDNAVEMIREANSIVITPGYGLCAAKAQYPIADLVKMLTEQGKKVRFGIHPVAGRMPGQLNVLLAEAGVPYDIVLEMDEINSDFPDTDLVLVIGANDTVNSAAQEDPNSIIAGMPVLEVWKSKQVIVMKRSLGVGYAAVDNPIFYKPNTAMLLGDAKKTCDALQAKVRESYQK
For B1, the binding entry is given as “binds”.

Values taken from PMC10063565.
